# Experimental data from the supplement of paper PMC3334620.
# Whole data set: some 33,000 sequences, median “E-score (-0.5 to 0.5)” near -0.016, cut for the highest 2% near 0.3. This is one part of the list.
# Biological target: T1, Yer184c (UniProt P39961)
# T1 sequence: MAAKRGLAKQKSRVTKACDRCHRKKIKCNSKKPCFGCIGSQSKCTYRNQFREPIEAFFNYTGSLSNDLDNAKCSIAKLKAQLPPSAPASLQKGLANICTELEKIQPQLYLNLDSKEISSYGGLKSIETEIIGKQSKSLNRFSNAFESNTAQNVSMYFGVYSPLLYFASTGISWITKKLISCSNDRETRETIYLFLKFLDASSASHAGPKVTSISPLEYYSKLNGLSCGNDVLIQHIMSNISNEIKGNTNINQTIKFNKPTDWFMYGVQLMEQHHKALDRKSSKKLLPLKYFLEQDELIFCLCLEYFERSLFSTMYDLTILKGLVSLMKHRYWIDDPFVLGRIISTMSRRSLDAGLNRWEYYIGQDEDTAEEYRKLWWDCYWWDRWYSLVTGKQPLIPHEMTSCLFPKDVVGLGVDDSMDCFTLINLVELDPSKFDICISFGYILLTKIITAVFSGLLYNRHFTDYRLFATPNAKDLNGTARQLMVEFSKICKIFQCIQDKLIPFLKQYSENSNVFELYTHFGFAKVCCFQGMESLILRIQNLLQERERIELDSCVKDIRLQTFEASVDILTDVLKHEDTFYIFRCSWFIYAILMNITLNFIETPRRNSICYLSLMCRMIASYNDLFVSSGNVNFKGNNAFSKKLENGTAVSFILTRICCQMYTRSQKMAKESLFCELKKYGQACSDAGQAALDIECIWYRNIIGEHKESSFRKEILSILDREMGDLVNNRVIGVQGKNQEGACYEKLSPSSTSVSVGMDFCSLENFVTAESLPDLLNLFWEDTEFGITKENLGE
# Assay: PBM E-score (8-mer binding enrichment) (E-score (-0.5 to 0.5)); higher = stronger / more preferred TF binding
# Conditions: protein concentration: 100 nM; construct: GST-full length
# Outline: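 E-scores (a modified Wilcoxon-Mann-Whitney statistic) were assigned by the Universal PBM Analysis Suite to every ungapped eight-base word pooled with its reverse complement. The input came from universal all-10-mer Agilent arrays made double-stranded by primer extension and probed with GST-tagged yeast transcription factors at about 100-200 nM. Fluorescent anti-GST detected bound protein, and masliner normalised the scans.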
row,Sequence,PBM E-score
1,GGCTCGAC,-0.0272
2,GCCTCACC,-0.156
3,CGCTTGGA,0.0874
4,CAGTATGC,-0.0894
5,TATCTCGA,-0.0455
6,AGTGTAAA,0.105
7,AGAGGCCT,-0.114
8,ATCGATGG,-0.0655
9,AAGGTTGC,-0.19
10,AAATCTAA,0.0546
11,AGTTTTGA,0.103
12,GATCCTCC,-0.178
13,ACTCTAAT,0.00773
14,GCAGCAAA,-0.117
15,ACTCCAAC,0.0431
16,CGGGGGGC,-0.293
17,CACGTGTC,-0.17
18,GGGCCCAA,-0.0842
19,GGGATTGA,-0.0889
20,AATGGCCT,-0.0309
21,GGATGGAA,-0.0548
22,ATCAGCAG,0.0226
23,CACTGGAG,-0.292
24,AGGAGCCT,-0.269

row,Sequence,PBM E-score
1,ACAGCGTC,0.0202
2,GCTTGGGA,-0.16
3,ACATCCGG,0.397
4,CGGACGCC,0.104
5,ACACTCCC,-0.211
6,CATTTTCA,0.106
7,CAGGAATA,0.0639
8,GGTCCGTA,0.178
9,TTCCGAAA,0.37
10,CCAAGTTA,-0.117
11,ATTTAATC,0.248
12,GGGTCCAA,-0.121
13,GGAATAAA,0.228
14,CGGACCTA,0.0584
15,ATCATAAA,0.173
16,TAAGTACA,-0.0474
17,AAATGCCC,-0.175
18,ACCTTCCG,0.227
19,ACGATTTG,-0.0682
20,CTATTAGC,0.171
21,AACTGGGT,-0.0927
22,AATTTTAA,0.252
23,CTGGCTTA,-0.145
24,GGTTCGCA,-0.0751

row,Sequence,PBM E-score
1,CTGTACCC,-0.0139
2,GGTAAAGA,0.11
3,GCGGTGCA,-0.287
4,ATAGCCAA,0.0311
5,AATGAGTA,0.113
6,ATTAAATG,0.261
7,CGTCTGAA,0.0214
8,CGCGTCGA,0.034
9,ACAGCACG,0.129
10,AAAGGCAC,0.0567
11,CGGCCTAG,0.0513
12,CTAAAACC,0.066
13,ACGTACGT,-0.267
14,ACTACTCA,0.13
15,ACCGAGCG,0.152
16,ATCATTTC,0.273
17,ATACAACG,0.187
18,AGTACAAG,-0.168
19,AACACCAA,-0.0707
20,CTTAATTA,0.112
21,CAGACTAC,0.00586
22,ATAGACTC,-0.178
23,CAACCTTA,-0.103
24,CAAGCCAA,0.0318

row,Sequence,PBM E-score
1,GAGTAGCA,0.0857
2,ACATCGTA,-0.0414
3,AGTACTGG,-0.0838
4,TCGTTCCA,0.0101
5,ATGTTTGC,-0.0549
6,ATTAAAGA,0.236
7,ACATACGA,-0.0105
8,TCCGTGCA,0.262
9,GTGATGGA,-0.0356
10,AGGCCTGG,-0.159
11,ACACAGCG,0.198
12,TAGTCCAA,-0.154
13,CGTTCCAC,-0.0422
14,CGTCGCGA,0.0973
15,ACCTGGCT,-0.236
16,AACATGAC,-0.0671
17,GCCATGGA,-0.23
18,GAGTACGA,0.127
19,TCGGCTCA,0.2
20,GCAGTATA,0.0249
21,AGTCCATC,-0.0363
22,TATCGGAA,0.351

# A portion from the list above, for reference:
row,Sequence,PBM E-score
7,AGAGGCCT,-0.114
8,ATCGATGG,-0.0655
9,AAGGTTGC,-0.19
10,AAATCTAA,0.0546
11,AGTTTTGA,0.103
12,GATCCTCC,-0.178
13,ACTCTAAT,0.00773
14,GCAGCAAA,-0.117
15,ACTCCAAC,0.0431
16,CGGGGGGC,-0.293
17,CACGTGTC,-0.17
18,GGGCCCAA,-0.0842
19,GGGATTGA,-0.0889
20,AATGGCCT,-0.0309
21,GGATGGAA,-0.0548
22,ATCAGCAG,0.0226
23,CACTGGAG,-0.292
24,AGGAGCCT,-0.269
1,ACAGCGTC,0.0202
2,GCTTGGGA,-0.16
3,ACATCCGG,0.397
4,CGGACGCC,0.104
5,ACACTCCC,-0.211
6,CATTTTCA,0.106
7,CAGGAATA,0.0639
8,GGTCCGTA,0.178
